Reference: article PMC5341950, “Antitumor activity of a novel anti-vascular endothelial growth factor receptor-1 monoclonal antibody that does not interfere with ligand binding” (Oncotarget, 2016)
These are yes or no findings as the source states them, for the method shown. Some entries that bind do so weakly or less than the wild type.

Chains of the proteins cited; added tags and fusions are not shown. Lines headed by an entry give the natural chain unless they say otherwise; changes in a name come on top. A line that says so, or that is headed by a name, gives the form on record, which may keep a tag or linker. Residues count along the entry.
native human soluble VEGFR-1 (sVEGFR-1) (P17948, form named): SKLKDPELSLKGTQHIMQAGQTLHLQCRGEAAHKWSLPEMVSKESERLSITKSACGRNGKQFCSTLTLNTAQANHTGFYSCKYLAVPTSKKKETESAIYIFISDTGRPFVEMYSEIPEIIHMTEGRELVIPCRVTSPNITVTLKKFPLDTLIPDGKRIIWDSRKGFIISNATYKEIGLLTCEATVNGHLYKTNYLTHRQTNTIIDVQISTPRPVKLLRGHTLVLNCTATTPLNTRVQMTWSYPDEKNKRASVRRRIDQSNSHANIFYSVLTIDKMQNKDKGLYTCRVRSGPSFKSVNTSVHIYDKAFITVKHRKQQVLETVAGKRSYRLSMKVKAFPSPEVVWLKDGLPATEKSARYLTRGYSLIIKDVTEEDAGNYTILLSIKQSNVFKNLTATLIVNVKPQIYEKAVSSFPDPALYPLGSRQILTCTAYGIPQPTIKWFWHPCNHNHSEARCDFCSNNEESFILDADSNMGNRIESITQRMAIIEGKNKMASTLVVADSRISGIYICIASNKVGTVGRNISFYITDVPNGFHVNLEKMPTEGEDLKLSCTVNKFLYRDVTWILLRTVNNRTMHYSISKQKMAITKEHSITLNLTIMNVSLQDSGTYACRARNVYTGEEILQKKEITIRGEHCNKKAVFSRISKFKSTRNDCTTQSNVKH
UniProt O14786, residues 22-856: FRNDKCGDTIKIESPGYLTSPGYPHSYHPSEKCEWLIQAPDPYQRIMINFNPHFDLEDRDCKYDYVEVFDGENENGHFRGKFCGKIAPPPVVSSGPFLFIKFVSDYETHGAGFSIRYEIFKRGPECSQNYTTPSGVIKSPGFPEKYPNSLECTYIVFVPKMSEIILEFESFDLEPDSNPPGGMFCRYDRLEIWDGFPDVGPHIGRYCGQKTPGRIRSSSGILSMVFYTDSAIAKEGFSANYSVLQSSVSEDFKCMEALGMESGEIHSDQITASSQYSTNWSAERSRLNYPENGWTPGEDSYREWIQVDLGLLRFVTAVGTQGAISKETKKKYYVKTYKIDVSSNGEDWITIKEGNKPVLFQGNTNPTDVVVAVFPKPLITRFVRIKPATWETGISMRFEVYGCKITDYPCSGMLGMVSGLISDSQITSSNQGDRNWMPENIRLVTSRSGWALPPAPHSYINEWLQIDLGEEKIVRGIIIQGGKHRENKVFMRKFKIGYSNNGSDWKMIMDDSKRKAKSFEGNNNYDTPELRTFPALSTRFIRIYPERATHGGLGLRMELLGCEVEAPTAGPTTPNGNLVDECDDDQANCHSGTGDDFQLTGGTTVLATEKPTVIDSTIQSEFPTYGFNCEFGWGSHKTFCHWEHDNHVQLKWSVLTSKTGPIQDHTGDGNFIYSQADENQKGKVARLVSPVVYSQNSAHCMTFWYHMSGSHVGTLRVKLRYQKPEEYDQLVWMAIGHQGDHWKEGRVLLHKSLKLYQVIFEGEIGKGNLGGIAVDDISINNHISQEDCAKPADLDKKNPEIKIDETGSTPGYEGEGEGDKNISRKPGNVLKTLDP

Target: native human soluble VEGFR-1 (sVEGFR-1) (human) (UniProt P17948)
Assay: ELISA; 96-well Maxisorp plates coated with 10 ug/ml sVEGFR-1; binding buffer PBS with 3% BSA, 1 mM CaCl2, 0.5 mM MgCl2; 2 ug/ml VEGFR-1/Fc, 4 ug/ml VEGFR-2/Fc or 1 ug/ml NRP-1/Fc added; detection with alkaline phosphatase-conjugated anti-human Fc antibody, absorbance at 405 nm; selected wells pre-incubated with 5 ug/ml D16F7 mAb for 30 min at room temperature; both purified

recombinant neuropilin-1/Fc chimera (from UniProt O14786 22-856) (Fc fusion)
binding: binds
